Screen size: about 330,000 compounds; fewer than 10 were called active. Inconclusive results, whose numbers are uncertain, are shown with a selection of clear calls. The call rests on the fitted dose curve; in most records, active means well fitted activation curve with a large enough effect; inconclusive means small, poorly fitted or top-dose-only effect, or another doubt; inactive means no such curve, though single readings can be large or run the other way. Potencies of inconclusive entries are doubtful fits and often do not repeat.
Test: Activators of T cell receptors: qHTS campaign
Conditions: primary human leukocytes, anti-CD3, IL-2 HTRF, 48 h
Summary of the method: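 HTRF read-out of IL-2 secretion: europium cryptate donor excited at 320nm, d2 acceptor emission at 665nm. Cells were primary human leukocytes incubated 48 hr with compounds and a-CD3 beads, supplying TCR signal only.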

| SMILES | Potency |
| --- | --- |
| CCCC(=O)NNc1c2ccccc2nc2ccccc12 | inconclusive: 8.91 µM [activator, partial curve, poor fit] |
| O=C(Nc1ccccc1-c1ccccc1)NC1CC2CCCC(C1)N2CCc1ccccc1 (stereo not given) | inconclusive: 12.6 µM [activator, partial curve, poor fit] |
| CN(C)c1ccc(/C=C2/NC(=O)NC2=O)cc1 | inconclusive: 5.01 µM [activator, full curve, poor fit] |
| COc1cccc(Nc2n[nH]c(=S)s2)c1 | inconclusive: 11.2 µM [activator, partial curve, poor fit] |
| O=C(Cn1ncc(Cl)c(Cl)c1=O)NCC1CCCCC1 | inconclusive: 79.4 µM [activator, single point] |
| CCSc1nnc(NC(=O)CSc2nnc(CNC(=O)c3ccccc3F)o2)s1 | inconclusive: 14.1 µM [activator, partial curve, poor fit] |
| CNC(=S)N1N=C(c2ccccc2)CC1c1ccc(OC)c(OC)c1 (stereo not given) | inconclusive: 8.91 µM [activator, partial curve, poor fit] |
| CCN(/N=C/c1ccc(N(C)C)cc1)c1nc2ccccc2[nH]1 | inconclusive: 5.01 µM [activator, partial curve, poor fit] |
| Cc1cccc(OCc2nnc(SCC(=O)N3CCN(c4ccccc4)CC3)o2)c1C | inconclusive: 14.1 µM [activator, partial curve, poor fit] |
| c1ccc2cc3c(NCCN4CCOCC4)ccnc3cc2c1 | inconclusive: 63.1 µM [activator, single point] |
| COc1cc2nc(SCC(=O)c3ccc(Br)cc3)n3nc(C)nc3c2cc1OC | inconclusive: 10 µM [activator, partial curve, poor fit] |
| Cc1ccsc1C(=O)NN=C1CCCCCC1 | inactive |
| COc1cccc(C(=O)N2C(C(=O)O)CSC2c2ccccc2Cl)c1 (stereo not given) | inconclusive: 15.8 µM [activator, partial curve, poor fit] |
| COc1cc(OC)c(/C=N/n2c(C)nnc2C)c(OC)c1 | inconclusive: 15.8 µM [activator, partial curve, poor fit] |
| O=C(Nc1ccc(Br)cn1)c1ccc(Cl)s1 | inactive |
| O=C(Oc1csc(=S)n1C(=O)c1ccccc1)c1ccccc1 | inactive |
| CCN(CC)c1ccc(/C=N/NC(=O)CC(C)C)cc1 | inactive |
| Cc1ccc(S(=O)(=O)NNC(=O)C(O)(c2ccccc2)c2ccccc2)cc1 | inconclusive: 1 µM [activator, single point] |
| O=C(Nc1nnc(C2CC2)s1)C1CC(=O)N(c2ccc3c(c2)OCCO3)C1 (stereo not given) | inconclusive: 5.62 µM [activator, full curve, poor fit] |
| O=C1CN(C(=O)CSc2nnc3ccccn23)c2ccccc2N1 | inconclusive: 0.794 µM [activator, single point] |
| COc1ccc(-c2ccnc3nc(N4CCOCC4)nn23)cc1 | inactive |
| NC(=O)CC(NC(=O)Cc1ccc(Br)cc1)c1ccc(NCc2ccc(F)cc2)c([N+](=O)[O-])c1 (stereo not given) | inactive |
| Oc1ccccc1/C=N/Nc1ncc(Br)cn1 | inconclusive: 1.26 µM [activator, single point] |

| SMILES | Potency |
| --- | --- |
| COc1cc(-c2n[nH]c(=O)o2)cc(OC)c1OC | inconclusive: 31.6 µM [activator, partial curve, poor fit] |
| CC(C)N(C(=O)Cn1c(-c2ccccc2Cl)nc2ccccc21)c1ccccc1 | inactive |
| Cc1cccc(CNS(=O)(=O)c2csc(C(N)=O)c2)c1 | inactive |
| CCNC(=S)N(Cc1ccccc1)Cc1nc2ccccc2c(=O)[nH]1 | inconclusive: 3.98 µM [activator, full curve, poor fit] |
| CCCS(=O)(=O)n1nc(-c2ccc(Br)cc2)cc1N | inconclusive: 6.31 µM [activator, full curve, poor fit] |
| CC(=O)/C(=N\Nc1ccccc1)Sc1nncn1C | inconclusive: 1 µM [activator, single point] |
| COC(=O)c1ccc(C(=O)OC)c(-n2c(=O)c3ccccc3c3ccccc3c2=O)c1 | inconclusive: 1.78 µM [activator, full curve, poor fit] |
| COc1ccc(Nc2nc(N3CCCC3)c3ccccc3n2)cc1 | inactive |
| CC(NC(=O)Cn1nnc(-c2ccncc2)n1)c1ccccc1 (stereo not given) | inconclusive: 3.98 µM [activator, full curve, poor fit] |
| O=C(Cc1cccs1)NC1(C(=O)NC2CCCC2)CCCCC1 | inactive |
| COc1ccc(C2=NN(c3nc(-c4ccccc4)c(CC(=O)O)s3)C(c3ccco3)C2)cc1 (stereo not given) | inconclusive: 12.6 µM [activator, partial curve, poor fit] |
| CC1CC1C(=O)Nc1nc(-c2cccs2)c(-c2cccs2)s1 (stereo not given) | inactive |
| CCCSC1=C(C#N)C(c2ccc(OC)cc2)C2=C(CC(C)(C)CC2=O)N1 (stereo not given) | inactive |
| O=C(NCCc1c[nH]c2ccccc12)c1ccc(F)cc1F | inactive |
| COc1ccc(N=c2scc(-c3ccc(S(=O)(=O)N4CCOCC4)cc3)n2CCCO)cc1 | inconclusive: 35.5 µM [activator, partial curve, poor fit] |
| CN1C(=S)N(c2ccccc2)C(=O)/C1=C/c1ccco1 | inconclusive: 20 µM [activator, partial curve, poor fit] |
| O=C(CCCSc1ccccc1)Nc1nc(-c2ccco2)c(-c2ccco2)s1 | inconclusive: 79.4 µM [activator, partial curve, poor fit] |
| S=C(NCCCN1CCOCC1)N1CCN(c2nc(-c3ccccc3)cs2)CC1 | inactive |
| COc1ccc(NC(=O)CSc2nnc3ccc(-c4ccccn4)nn23)cc1 | inactive |
| Cc1oc2ccc(O)c(CN3CCOCC3)c2c1C(C)O (stereo not given) | inconclusive: 2.82 µM [activator, full curve, poor fit] |
| Cc1cccc(-n2c(-c3ccncc3)n[nH]c2=S)c1 | inconclusive: 8.91 µM [activator, partial curve, poor fit] |
| CCC(/C=C1\Sc2ccc(OC)cc2N1CCO)=C\c1sc2ccc(OC)cc2[n+]1CCO | active: 12.6 µM |

Exported as labelled records: 3 of the compounds above
COc1ccc(N=c2scc(-c3ccc(S(=O)(=O)N4CCOCC4)cc3)n2CCCO)cc1
  Potency: inconclusive: 35.5 µM [activator, partial curve, poor fit]
CN1C(=S)N(c2ccccc2)C(=O)/C1=C/c1ccco1
  Potency: inconclusive: 20 µM [activator, partial curve, poor fit]
O=C(CCCSc1ccccc1)Nc1nc(-c2ccco2)c(-c2ccco2)s1
  Potency: inconclusive: 79.4 µM [activator, partial curve, poor fit]

From PubChem BioAssay AID504894 (National Center for Advancing Translational Sciences (NCATS), 2011)
